Experimental data: paper PMC10789772
These are yes or no findings as the source states them, for the method shown. In cells and extracts the contact can be indirect. Here binding means that the protein was enriched with, or labelled near, the bait; the list need not be complete. Where a sequence is shown, tags or fusion partners need not be part of it.

By UniProt entry, the sequences of proteins in these tests, tags left out.
UniProt Q12905: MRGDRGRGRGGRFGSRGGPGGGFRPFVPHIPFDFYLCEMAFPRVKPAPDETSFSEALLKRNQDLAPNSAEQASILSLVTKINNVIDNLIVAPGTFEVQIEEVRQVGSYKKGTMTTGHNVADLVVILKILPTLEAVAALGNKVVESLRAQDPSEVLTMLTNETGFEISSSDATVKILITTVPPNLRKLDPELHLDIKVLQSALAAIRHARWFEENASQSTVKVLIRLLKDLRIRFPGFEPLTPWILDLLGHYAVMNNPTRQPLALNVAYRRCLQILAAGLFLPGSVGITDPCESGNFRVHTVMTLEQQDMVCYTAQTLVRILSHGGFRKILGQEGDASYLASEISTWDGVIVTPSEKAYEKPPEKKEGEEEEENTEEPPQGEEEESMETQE
UniProt Q9Y265: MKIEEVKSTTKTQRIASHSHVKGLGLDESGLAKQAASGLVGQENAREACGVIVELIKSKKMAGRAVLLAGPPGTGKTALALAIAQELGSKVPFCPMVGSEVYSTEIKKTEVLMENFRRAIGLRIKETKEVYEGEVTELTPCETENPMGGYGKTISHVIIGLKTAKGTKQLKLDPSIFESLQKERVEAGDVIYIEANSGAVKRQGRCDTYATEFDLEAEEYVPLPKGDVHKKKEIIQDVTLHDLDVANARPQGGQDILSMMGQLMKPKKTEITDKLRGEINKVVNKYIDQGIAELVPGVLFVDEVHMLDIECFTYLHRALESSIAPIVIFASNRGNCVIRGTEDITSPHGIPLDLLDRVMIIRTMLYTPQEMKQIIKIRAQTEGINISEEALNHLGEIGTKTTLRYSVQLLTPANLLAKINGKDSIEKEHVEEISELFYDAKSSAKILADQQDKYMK

T1: HA-CIP29 (human) (UniProt P82979)
T1 sequence: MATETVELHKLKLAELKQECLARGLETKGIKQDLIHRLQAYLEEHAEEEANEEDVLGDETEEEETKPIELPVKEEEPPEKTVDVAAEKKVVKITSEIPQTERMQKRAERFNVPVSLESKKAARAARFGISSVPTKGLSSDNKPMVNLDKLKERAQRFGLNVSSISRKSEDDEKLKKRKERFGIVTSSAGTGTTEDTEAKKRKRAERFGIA

B1: ILF3 (protein, UniProt Q12906 1-894)
chain: MRPMRIFVNDDRHVMAKHSSVYPTQEELEAVQNMVSHTERALKAVSDWIDEQEKGSSEQAESDNMDVPPEDDSKEGAGEQKTEHMTRTLRGVMRVGLVAKGLLLKGDLDLELVLLCKEKPTTALLDKVADNLAIQLAAVTEDKYEILQSVDDAAIVIKNTKEPPLSLTIHLTSPVVREEMEKVLAGETLSVNDPPDVLDRQKCLAALASLRHAKWFQARANGLKSCVIVIRVLRDLCTRVPTWGPLRGWPLELLCEKSIGTANRPMGAGEALRRVLECLASGIVMPDGSGIYDPCEKEATDAIGHLDRQQREDITQSAQHALRLAAFGQLHKVLGMDPLPSKMPKKPKNENPVDYTVQIPPSTTYAITPMKRPMEEDGEEKSPSKKKKKIQKKEEKAEPPQAMNALMRLNQLKPGLQYKLVSQTGPVHAPIFTMSVEVDGNSFEASGPSKKTAKLHVAVKVLQDMGLPTGAEGRDSSKGEDSAEETEAKPAVVAPAPVVEAVSTPSAAFPSDATAEQGPILTKHGKNPVMELNEKRRGLKYELISETGGSHDKRFVMEVEVDGQKFQGAGSNKKVAKAYAALAALEKLFPDTPLALDANKKKRAPVPVRGGPKFAAKPHNPGFGMGGPMHNEVPPPPNLRGRGRGGSIRGRGRGRGFGGANHGGYMNAGAGYGSYGYGGNSATAGYSQFYSNGGHSGNASGGGGGGGGGSSGYGSYYQGDNYNSPVPPKHAGKKQPHGGQQKPSYGSGYQSHQGQQQSYNQSPYSNYGPPQGKQKGYNHGQGSYSYSNSYNSPGGGGGSDYNYESKFNYSGSGGRSGGNSYGSGGASYNPGSHGGYGGGSGGGSSYQGKQGGYSQSNYNSPGSGQNYSGPPSSYQSSQGGYGRNADHSMNYQYR
B2: HNRNPM (protein, UniProt P52272 1-730)
chain: MAAGVEAAAEVAATEIKMEEESGAPGVPSGNGAPGPKGEGERPAQNEKRKEKNIKRGGNRFEPYANPTKRYRAFITNIPFDVKWQSLKDLVKEKVGEVTYVELLMDAEGKSRGCAVVEFKMEESMKKAAEVLNKHSLSGRPLKVKEDPDGEHARRAMQKVMATTGGMGMGPGGPGMITIPPSILNNPNIPNEIIHALQAGRLGSTVFVANLDYKVGWKKLKEVFSMAGVVVRADILEDKDGKSRGIGTVTFEQSIEAVQAISMFNGQLLFDRPMHVKMDERALPKGDFFPPERPQQLPHGLGGIGMGLGPGGQPIDANHLNKGIGMGNIGPAGMGMEGIGFGINKMGGMEGPFGGGMENMGRFGSGMNMGRINEILSNALKRGEIIAKQGGGGGGGSVPGIERMGPGIDRLGGAGMERMGAGLGHGMDRVGSEIERMGLVMDRMGSVERMGSGIERMGPLGLDHMASSIERMGQTMERIGSGVERMGAGMGFGLERMAAPIDRVGQTIERMGSGVERMGPAIERMGLSMERMVPAGMGAGLERMGPVMDRMATGLERMGANNLERMGLERMGANSLERMGLERMGANSLERMGPAMGPALGAGIERMGLAMGGGGGASFDRAIEMERGNFGGSFAGSFGGAGGHAPGVARKACQIFVRNLPFDFTWKMLKDKFNECGHVLYADIKMENGKSKGCGVVKFESPEVAERACRMMNGMKLSGREIDVRIDRNA

The molecules below were run against T1, HA-CIP29 (human) (assay: affinity purification with mass spectrometry; tandem immunoprecipitation (first: HA, second: FLAG; peptide elution) from nuclear extract expressing both FLAG-URH49 and HA-CIP29, ATP depletion condition, RNase-treated; silver staining and LC-MS/MS).

binding	Molecule
binds	ILF2 (from UniProt Q12905 1-390)
binds	RUVBL1 (from UniProt Q9Y265 1-456)
binds	B1
binds	B2
